Assay [1] has as its target GST-tagged PD-L1 (human) (UniProt Q9NZQ7). Nature of the assay: pull-down; GST-PD-L1 and His-tagged TMUB1 from E. coli incubated with HUWE1-Flag obtained from HEK-293T cells; GST magnetic beads; immunoblot (Supplementary Fig. 4p); both purified. On the technique in general: A western blot detects proteins with antibodies after separation by electrophoresis.
For assay [2] the target is unchanged. Nature of the assay: pull-down; GST pull-down of recombinant PD-L1-GST and TMUB1-His with or without PTPR; immunoblot (Fig. 6h); both purified.

The chains behind the UniProt entries cited, without tags or fusion partners. Where a name states a change or a piece, a line headed by the entry shows the natural chain unless it says otherwise.
UniProt Q9NZQ7: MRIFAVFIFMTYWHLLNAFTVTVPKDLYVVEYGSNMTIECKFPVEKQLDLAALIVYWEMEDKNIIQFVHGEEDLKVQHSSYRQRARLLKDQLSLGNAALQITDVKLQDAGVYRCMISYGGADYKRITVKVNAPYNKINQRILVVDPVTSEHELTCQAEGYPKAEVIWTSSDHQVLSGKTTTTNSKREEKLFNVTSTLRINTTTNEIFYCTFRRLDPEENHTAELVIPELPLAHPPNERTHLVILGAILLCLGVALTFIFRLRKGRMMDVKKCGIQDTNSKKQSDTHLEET
UniProt Q7Z6Z7: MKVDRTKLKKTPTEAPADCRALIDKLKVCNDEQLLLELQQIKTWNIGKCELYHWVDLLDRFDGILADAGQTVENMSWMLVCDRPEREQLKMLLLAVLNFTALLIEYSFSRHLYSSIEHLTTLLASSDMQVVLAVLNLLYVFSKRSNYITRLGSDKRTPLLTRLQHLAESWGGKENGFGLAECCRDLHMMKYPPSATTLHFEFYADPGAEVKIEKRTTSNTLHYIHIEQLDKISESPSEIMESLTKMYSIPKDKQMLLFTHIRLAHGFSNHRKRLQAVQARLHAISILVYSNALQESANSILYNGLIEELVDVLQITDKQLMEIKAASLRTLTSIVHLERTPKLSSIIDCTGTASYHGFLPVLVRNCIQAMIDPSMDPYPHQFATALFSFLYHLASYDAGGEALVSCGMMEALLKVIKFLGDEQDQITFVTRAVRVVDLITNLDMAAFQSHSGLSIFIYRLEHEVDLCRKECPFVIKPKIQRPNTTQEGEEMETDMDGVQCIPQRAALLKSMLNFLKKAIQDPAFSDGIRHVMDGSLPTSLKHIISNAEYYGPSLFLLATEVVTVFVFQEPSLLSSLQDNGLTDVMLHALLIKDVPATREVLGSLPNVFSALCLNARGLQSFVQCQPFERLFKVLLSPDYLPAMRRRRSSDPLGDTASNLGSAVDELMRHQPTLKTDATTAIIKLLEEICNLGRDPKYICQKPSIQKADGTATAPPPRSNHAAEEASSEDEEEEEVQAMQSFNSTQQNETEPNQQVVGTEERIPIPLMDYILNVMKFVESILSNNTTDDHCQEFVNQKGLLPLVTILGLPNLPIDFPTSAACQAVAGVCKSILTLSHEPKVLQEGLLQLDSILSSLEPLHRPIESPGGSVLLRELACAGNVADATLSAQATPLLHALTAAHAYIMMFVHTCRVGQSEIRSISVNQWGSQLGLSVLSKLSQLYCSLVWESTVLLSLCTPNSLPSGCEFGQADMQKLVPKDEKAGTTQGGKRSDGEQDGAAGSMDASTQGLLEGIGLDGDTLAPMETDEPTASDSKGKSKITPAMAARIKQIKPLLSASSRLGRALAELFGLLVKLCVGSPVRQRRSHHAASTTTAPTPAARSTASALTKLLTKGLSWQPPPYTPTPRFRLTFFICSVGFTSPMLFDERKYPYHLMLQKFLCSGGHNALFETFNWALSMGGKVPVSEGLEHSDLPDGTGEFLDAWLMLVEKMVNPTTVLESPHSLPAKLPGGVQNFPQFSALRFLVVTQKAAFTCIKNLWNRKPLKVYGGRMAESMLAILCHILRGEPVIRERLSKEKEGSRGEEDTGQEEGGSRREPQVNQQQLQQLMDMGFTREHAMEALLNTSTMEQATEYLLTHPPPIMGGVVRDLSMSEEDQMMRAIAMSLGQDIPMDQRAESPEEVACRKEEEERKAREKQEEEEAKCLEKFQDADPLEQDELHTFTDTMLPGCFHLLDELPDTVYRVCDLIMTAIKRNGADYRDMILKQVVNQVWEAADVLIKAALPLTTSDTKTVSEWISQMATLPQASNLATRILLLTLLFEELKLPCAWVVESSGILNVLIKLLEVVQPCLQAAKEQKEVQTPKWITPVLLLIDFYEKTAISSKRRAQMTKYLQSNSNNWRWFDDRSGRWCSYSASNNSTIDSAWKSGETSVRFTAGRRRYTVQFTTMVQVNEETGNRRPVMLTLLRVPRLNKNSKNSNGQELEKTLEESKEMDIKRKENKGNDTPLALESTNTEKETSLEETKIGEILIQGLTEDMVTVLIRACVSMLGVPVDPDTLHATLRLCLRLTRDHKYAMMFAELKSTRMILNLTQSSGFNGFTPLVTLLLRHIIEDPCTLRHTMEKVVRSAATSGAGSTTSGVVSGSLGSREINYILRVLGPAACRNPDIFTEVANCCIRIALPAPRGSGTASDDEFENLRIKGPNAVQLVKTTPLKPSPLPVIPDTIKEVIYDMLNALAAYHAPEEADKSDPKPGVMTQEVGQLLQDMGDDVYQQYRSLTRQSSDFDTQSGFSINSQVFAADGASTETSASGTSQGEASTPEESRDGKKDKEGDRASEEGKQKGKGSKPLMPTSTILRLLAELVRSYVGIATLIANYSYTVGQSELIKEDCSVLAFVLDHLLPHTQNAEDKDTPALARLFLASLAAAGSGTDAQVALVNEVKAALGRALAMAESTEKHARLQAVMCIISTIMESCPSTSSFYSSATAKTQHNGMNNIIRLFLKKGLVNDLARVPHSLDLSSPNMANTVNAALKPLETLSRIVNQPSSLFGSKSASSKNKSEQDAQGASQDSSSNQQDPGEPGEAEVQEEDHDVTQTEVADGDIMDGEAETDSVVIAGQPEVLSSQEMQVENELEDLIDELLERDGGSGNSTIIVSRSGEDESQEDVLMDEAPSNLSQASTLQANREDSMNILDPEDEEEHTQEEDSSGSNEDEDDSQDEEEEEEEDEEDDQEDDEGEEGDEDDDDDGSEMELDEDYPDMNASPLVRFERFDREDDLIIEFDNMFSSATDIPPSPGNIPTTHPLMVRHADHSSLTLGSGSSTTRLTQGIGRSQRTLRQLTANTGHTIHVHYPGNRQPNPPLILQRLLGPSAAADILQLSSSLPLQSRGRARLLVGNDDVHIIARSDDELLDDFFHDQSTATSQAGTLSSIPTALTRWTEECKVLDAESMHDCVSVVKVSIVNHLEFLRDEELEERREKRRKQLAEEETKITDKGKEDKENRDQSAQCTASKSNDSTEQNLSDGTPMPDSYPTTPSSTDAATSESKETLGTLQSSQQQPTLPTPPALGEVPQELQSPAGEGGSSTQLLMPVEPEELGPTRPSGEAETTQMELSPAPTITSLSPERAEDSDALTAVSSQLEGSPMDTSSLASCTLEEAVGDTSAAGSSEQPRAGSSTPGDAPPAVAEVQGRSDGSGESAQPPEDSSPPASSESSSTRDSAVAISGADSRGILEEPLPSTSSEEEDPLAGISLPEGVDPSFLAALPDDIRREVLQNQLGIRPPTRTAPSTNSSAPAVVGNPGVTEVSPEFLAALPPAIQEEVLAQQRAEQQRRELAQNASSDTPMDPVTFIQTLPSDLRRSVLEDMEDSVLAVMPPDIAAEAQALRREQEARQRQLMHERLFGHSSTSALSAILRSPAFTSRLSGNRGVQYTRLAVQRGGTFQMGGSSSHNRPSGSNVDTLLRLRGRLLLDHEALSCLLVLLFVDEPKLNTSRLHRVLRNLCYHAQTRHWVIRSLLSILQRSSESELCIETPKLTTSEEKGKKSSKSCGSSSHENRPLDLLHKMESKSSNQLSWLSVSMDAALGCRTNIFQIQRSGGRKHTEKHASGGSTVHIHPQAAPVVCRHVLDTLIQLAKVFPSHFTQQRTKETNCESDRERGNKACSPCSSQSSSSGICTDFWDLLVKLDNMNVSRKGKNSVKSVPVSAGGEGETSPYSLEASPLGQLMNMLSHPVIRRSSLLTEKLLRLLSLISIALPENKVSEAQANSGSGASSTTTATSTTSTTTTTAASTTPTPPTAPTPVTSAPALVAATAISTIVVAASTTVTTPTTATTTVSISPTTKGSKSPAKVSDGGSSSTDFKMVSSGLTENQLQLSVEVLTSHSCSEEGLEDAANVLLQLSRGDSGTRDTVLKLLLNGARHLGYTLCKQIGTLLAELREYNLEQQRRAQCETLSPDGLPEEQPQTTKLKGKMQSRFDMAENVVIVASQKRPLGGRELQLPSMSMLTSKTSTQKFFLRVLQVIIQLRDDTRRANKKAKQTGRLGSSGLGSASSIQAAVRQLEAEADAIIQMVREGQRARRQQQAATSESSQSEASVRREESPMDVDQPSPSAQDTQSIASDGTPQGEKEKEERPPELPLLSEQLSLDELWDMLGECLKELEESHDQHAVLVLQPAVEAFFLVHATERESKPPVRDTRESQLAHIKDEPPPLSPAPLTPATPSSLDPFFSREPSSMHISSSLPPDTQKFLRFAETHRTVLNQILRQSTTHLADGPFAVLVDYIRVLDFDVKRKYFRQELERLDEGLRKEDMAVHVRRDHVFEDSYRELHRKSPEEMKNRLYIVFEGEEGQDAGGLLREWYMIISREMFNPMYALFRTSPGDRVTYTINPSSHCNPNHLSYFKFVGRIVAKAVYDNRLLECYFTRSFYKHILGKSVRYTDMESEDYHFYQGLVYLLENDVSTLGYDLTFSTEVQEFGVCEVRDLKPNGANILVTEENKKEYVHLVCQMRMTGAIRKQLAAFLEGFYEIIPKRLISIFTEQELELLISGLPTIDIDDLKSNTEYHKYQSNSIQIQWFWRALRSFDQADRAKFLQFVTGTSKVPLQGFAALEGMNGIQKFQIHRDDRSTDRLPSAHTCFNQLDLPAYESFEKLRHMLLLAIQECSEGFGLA
UniProt Q9BVT8: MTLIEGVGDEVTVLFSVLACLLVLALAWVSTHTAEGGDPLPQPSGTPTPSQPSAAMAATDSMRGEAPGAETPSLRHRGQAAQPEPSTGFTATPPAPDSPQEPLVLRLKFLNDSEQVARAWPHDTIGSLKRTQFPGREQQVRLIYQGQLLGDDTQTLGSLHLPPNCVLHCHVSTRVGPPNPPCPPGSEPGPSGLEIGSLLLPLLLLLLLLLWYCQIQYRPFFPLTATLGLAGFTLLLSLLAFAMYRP

These are yes or no findings as the source states them, for the method shown. Binding calls can cover weak binding; strength is not graded here.

“HUWE1-Flag (from UniProt Q7Z6Z7 1-4374) (enzyme)”: in assay [1], the binding result is given as “binds”. With GFTATPPAPDSPQEP (peptide, UniProt Q9BVT8 88-102, FITC (position not given)) [PTPR (Peptide of TMUB1 PD-L1 Regulatory domain)], the binding result in assay [2] is reported as “binds”.

The values above are taken from article PMC9663433.
